The values are deposited in ChEMBL (CHEMBL3988442, “University of Dundee, Small-Polar-MMV Screening Library” (2021)).

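Assay of Toxoplasma gondii numbers, read through their beta-galactosidase reporter with a colour substrate. Concentration: 50 µM. The record gives no direction; the compounds picked for IC50 retests had high values, so higher reads as fewer parasites. Size under these conditions: about 18,000 compounds, about 170 of them at 50% or above in at least one test.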

Results are given as percent effect.
The controls that fix the scale are not given in the record; negative values are as filed.
Compounds were drawn at random from those tested, without regard to their results.

Compound,percent effect
CC(=O)c1cn2c(n1)CCCC2,-5.12%
CCN(CC)CC(=O)NCCS(=O)(=O)C(C)(C)C,-3.348%
CC(C)(C)c1noc(CCC(=O)N2CCSCC2)n1,-3.645%
O=C(CN1CCC(O)CC1)NC(=O)Nc1ccccc1,-6.799%
CCOCCC(=O)N1CCC2(CCCN(C)C2=O)C1 (stereo not given),-12.31%
CCOCCn1c(C)nn(C(C)(C)C)c1=O,1.215%
CC(N)c1ccc(N2CCCCC2=O)cc1 (stereo not given),3.622%
Cc1cc(NC(=O)NC(C)C2CC2)n(C)n1 (stereo not given),-10.27%
CC(=O)N1CCN(CC(=O)NCc2cccs2)CC1,1.125%
CN1CC(CN)OC1=O (stereo not given),3.951%
CNC(=O)CSc1nnc(C2CC2)n1C,11.76%
CCS(=O)(=O)NCCCNCc1c(C)nn(C)c1OC,-3.644%
Cc1ccc(Cl)cc1NC(=O)CN1C(=O)CCC1=O,-11.32%
CC(C)c1ccn(CC(=O)NC2CC2)n1,-16.24%
COCCN1CCN(Cc2ccc(C#N)cc2F)CC1,6.567%
OC1CCN(c2ccccn2)CC1,1.123%
CNC(=O)CS(=O)(=O)Cc1cc(=O)n(C)c(=O)n1C,9.101%
CNC(=O)c1cc(NC)ccn1,-20.09%
CC1CCCN(Cc2ccc(CN)cc2)C1 (stereo not given),0.3677%
Cc1ccc(C(=O)Nc2n[nH]c(C3CCC3)n2)c(=O)[nH]1,19.79%
CCCc1noc(C(C)Nc2cccc(C(N)=O)c2)n1 (stereo not given),14.23%
CC(C)c1cc(C(=O)N2CC(c3ccccn3)C2)no1,-2.357%
COc1cc(F)cc(CNC(=O)Nc2ncco2)c1,-5.701%
CNCc1nnc2n1CCC2,-3.393%
CN(c1ccc(CN)cc1)S(C)(=O)=O,-7.368%
Cc1cc(C)c(CNc2ncnc3[nH]ncc23)c(=O)[nH]1,-1.468%
CC(N)c1ccc(OCC(=O)NC2CC2)cc1 (stereo not given),-2.425%
NCc1noc(-c2cccc(Br)c2)n1,-1.54%
Cc1ccc(C(=O)N2CCOCC2)c(=O)[nH]1,-2.373%
Cc1c[nH]c(CN2CCN3CCCC3C2)c(C)c1=O (stereo not given),-9.922%
CC(C)CC1(CO)CCCN1 (stereo not given),-2.258%
CC1c2cccn2CCN1C(=O)c1cnccn1 (stereo not given),-7.995%
O=C(CN1CCNCC1)NCCSc1ccc(Cl)cc1,4.461%
CC(C)(C)N1CC(=O)NCC1=O,-5.598%
Cc1ccc(CCNC(=O)NCc2cnn(C)c2)cn1,-1.36%
CCS(=O)(=O)CCNC(=O)c1cc(CC(C)C)on1,3.898%
CCOc1ncccc1C(=O)N1CCCN(C)CC1,3.231%
CN(C(=O)OC(C)(C)C)C1CCNC1 (stereo not given),0.858%
CS(=O)(=O)CCN1CCC(C(N)=O)CC1,50.58%
O=S(=O)(CCN1CCC(CO)CC1)c1ccccc1,-26.81%
CN(CCc1ccncc1)C(=O)CCNS(C)(=O)=O,18.85%
Cn1nccc1CCNC(=O)CCc1cccnc1,-0.4114%
CN1CCCN(S(=O)(=O)c2ccccc2)CC1,11.48%
Cc1cc(C)c(CNC(=O)Cc2cccs2)c(=O)[nH]1,18%
N#Cc1ccnc(O)c1,17.3%
CS(=O)(=O)N1CCN(c2ccc(C(N)=O)cc2)CC1,-7.11%
CCN(CC)CCNC(=O)c1ccc(CN)cc1,22.09%
Cn1cc(C(=O)NCCCN2CCOCC2)ccc1=O,-4.611%
N[C@@H]1CC[C@@H]1NS(=O)(=O)Cc1ccccc1,-0.9019%
CNC(=O)Cc1ccccc1NC(=O)c1csc(C)n1,6.101%
NC1CCN(S(=O)(=O)C2CC2)CC1,-7.815%
CC(C)C(N)C(=O)N(C)C (stereo not given),5.129%
CC(Cc1ccco1)NC(=O)C1CCN(C(N)=O)CC1 (stereo not given),-2.605%
CCN(C)S(=O)(=O)NCC1(O)CCCc2ccccc21 (stereo not given),-13.37%
Cc1ocnc1C(=O)N1CC(=O)Nc2ccc(Br)cc21,-7.73%
CC(CO)(CO)NC(=O)c1cnc(-c2cccs2)s1,-2.983%
COCCCNC(=O)c1ccc(NC(C)=O)cc1,-16.84%
CNCCCNS(=O)(=O)c1ccc(Br)c(C(C)=O)c1,7.594%
CC(N[C@H]1CC[C@H](O)CC1)c1ccc(S(C)(=O)=O)cc1 (stereo not given in full),8.254%
COc1nc(N)n[nH]1,1.378%
NC(=O)c1ccc(S(N)(=O)=O)cc1,5.017%
NCC(O)c1cccc2ccccc12 (stereo not given),36.71%
Nc1ncccc1CN1CCN(C2CCOCC2)CC1,4.597%
O=C(NCCCn1nccc1C1CC1)c1ccno1,22.72%
Cc1noc(C)c1CN1CCC(C(N)=O)CC1,-12.55%
Cc1cccnc1NC1=NS(=O)(=O)c2ccccc21,-5.332%
CC(CO)NC(=O)NCc1ccnc(N2CCCC2)c1 (stereo not given),-8.764%
Cc1cnn(CCNCc2cccnc2C)c1,-1.833%
CCN1CCC(NC(=O)Cc2ccccc2F)CC1,-16.91%
CCN(CCC#N)C(=O)CSc1ccoc1C,-0.04181%
CCc1ccsc1C(=O)N1CCOCC1c1ncon1 (stereo not given),-11.04%
CC(C)n1cncc1CN1CCN(C(=O)N(C)C)CC1,4.112%
CN(C(=O)c1ccc(Br)cn1)c1ccc2c(c1)OCO2,15.22%
CC(O)(CN)c1ccc(F)cc1 (stereo not given),-5.932%
CC(C)Cc1nc(C#N)c(N)o1,-8.085%
CC(=O)c1ccccc1-n1cccn1,2.504%
CN(C1(C#N)CCC1)S(=O)(=O)c1ccccc1,-2.721%

Once more, the final 9:

Compound	percent effect
CCN1CCC(NC(=O)Cc2ccccc2F)CC1	-16.91%
CCN(CCC#N)C(=O)CSc1ccoc1C	-0.04181%
CCc1ccsc1C(=O)N1CCOCC1c1ncon1 (stereo not given)	-11.04%
CC(C)n1cncc1CN1CCN(C(=O)N(C)C)CC1	4.112%
CN(C(=O)c1ccc(Br)cn1)c1ccc2c(c1)OCO2	15.22%
CC(O)(CN)c1ccc(F)cc1 (stereo not given)	-5.932%
CC(C)Cc1nc(C#N)c(N)o1	-8.085%
CC(=O)c1ccccc1-n1cccn1	2.504%
CN(C1(C#N)CCC1)S(=O)(=O)c1ccccc1	-2.721%